Earlier results on one molecule are cited in publication PMC9997069 (Molecular Pharmaceutics, 2023).

Protein sequences, listed by entry. Tags and fused reporters are not part of them. Residues count along the entry.
UniProt P02768, 25-609: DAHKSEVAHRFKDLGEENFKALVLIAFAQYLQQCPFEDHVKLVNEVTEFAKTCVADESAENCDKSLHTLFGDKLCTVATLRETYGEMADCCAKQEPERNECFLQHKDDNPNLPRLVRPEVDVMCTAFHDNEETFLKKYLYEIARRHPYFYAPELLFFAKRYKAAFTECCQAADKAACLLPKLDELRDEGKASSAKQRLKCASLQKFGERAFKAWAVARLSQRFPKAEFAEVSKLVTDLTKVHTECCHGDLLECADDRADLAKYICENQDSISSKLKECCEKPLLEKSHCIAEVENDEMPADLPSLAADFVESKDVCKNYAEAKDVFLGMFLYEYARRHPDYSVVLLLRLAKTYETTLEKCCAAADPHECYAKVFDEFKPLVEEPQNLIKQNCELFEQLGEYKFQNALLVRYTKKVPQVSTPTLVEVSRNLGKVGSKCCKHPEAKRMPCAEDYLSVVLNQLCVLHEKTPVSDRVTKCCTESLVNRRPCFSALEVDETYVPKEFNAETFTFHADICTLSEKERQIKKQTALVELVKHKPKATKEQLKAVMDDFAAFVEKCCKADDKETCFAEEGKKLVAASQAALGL

The data set addresses T1, HSA (Homo sapiens, UniProt P02768).
T1 construct: purchased Sigma-Aldrich
The conditions noted are these: 310 K; cited from earlier work.

Molecules are shown by their SMILES.

With `NS(=O)(=O)c1cc(C(=O)O)c(NCc2ccco2)cc1Cl` [furosemide], the “binding constant to HSA” value is 1.99 × 10^5 M^–1.
